Primary screen of a compound library

Protein sequences, listed by entry. Tags and fused reporters are not part of them.
UniProt E9BF75, entry or part of it: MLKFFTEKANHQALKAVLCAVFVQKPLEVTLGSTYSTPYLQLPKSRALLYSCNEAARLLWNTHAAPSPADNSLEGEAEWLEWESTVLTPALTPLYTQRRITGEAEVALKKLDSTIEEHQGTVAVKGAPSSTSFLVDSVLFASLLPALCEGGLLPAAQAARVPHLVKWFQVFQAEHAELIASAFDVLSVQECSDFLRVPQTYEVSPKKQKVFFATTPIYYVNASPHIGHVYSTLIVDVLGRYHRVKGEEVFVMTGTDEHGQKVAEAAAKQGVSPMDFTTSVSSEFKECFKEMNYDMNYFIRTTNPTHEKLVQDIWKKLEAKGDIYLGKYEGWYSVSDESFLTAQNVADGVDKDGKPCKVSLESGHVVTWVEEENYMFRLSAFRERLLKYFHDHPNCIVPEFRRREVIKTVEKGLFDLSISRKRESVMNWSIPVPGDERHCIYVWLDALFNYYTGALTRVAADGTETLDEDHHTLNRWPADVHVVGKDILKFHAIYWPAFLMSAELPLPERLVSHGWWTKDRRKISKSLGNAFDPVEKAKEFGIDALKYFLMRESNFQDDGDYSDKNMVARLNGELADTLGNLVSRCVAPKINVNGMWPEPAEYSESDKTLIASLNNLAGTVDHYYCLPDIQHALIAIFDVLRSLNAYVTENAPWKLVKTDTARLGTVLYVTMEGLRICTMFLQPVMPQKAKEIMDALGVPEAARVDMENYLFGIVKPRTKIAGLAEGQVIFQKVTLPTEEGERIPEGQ

The values are deposited in ChEMBL (CHEMBL3988442, “University of Dundee, Small-Polar-MMV Screening Library” (2021)).

Results are percentages, as filed.
How 0% and 100% were set is not recorded. Most values in the screen are low, and negative values occur.
Compounds were drawn at random from those tested, without regard to their results.
A dash means the value is not listed here; it may have been measured.

A: 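Methionyl-tRNA synthetase (putative), Leishmania donovani (UniProt E9BF75). Primary screen of methionyl-tRNA synthetase; the read-out is not stated. The test concentration is not given. Values are per cent inhibition. Of about 68,000 compounds tested this way, about 24 (0.035%) reached 50% or more in at least one test.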
B: 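Assay on Mycobacterium tuberculosis, filed only as a heat shock assay from Cornell; the read-out is not stated. The concentration is filed as 10 mM, unlikely as a test dose, so the dose is not known. The record gives no direction; compounds that gave an IC50 in retests scored well above the rest, so higher reads as stronger inhibition. Of about 69,000 compounds tested this way, about 930 (1.4%) reached 50% or more in at least one test.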

structure,A,B
CO[C@H]1CN(C(=O)c2cn3cc(C)ccc3n2)CC[C@@]12CCCO2,8.491,-2.853
COc1ccc2c(c1)CCCN(C(C)C(=O)NC(C)C)C2 (centres undefined),17.96,5.467
COc1ccc(CN2CCn3cc(CN4CCCCC4)nc3C2)cc1,7.843,-
Cc1cc(C)cc(CN2CCN(C(=O)C3CCC3)[C@@H]3CS(=O)(=O)C[C@@H]32)c1,10.75,-
Cn1cnc2c1C(C(=O)N1CCCC1)N(S(C)(=O)=O)CC2 (centres undefined),13.78,-3.673
CC(O)C(=O)N1CCN(c2ccccc2Cl)C(=O)C1 (centres undefined),0,-4.975
O=C1[C@H]2CN(Cc3ccc(F)cc3)C[C@H]2CN1c1cncnc1,8.602,-
[H][C@@]12CCN(Cc3cccc4ccccc34)C[C@]1(c1nnc(C)o1)CCO2,-,3.885
CCN(Cc1noc(CC(C)C)n1)Cc1ccccc1Cl,12.05,-12.61
CCOc1ccc(Cl)c(C(=O)N2CCCC(N3CCCC3)C2)n1 (centres undefined),14.21,-14.47
Cl.Cl.c1cn(-c2cnc(C3CCNCC3)cn2)cn1,-,3.477
NC(=O)C1CCN(Cc2csc(-c3ncccn3)n2)CC1,6.032,-44.17
CC(=O)Nc1ccc(CNC2COc3c2ccc(C)c3C)cc1 (centres undefined),17.9,-5.326
O=C(CCCc1nc(C2CC2)no1)N1CCCC(c2ccn[nH]2)C1 (centres undefined),4.839,6.255
COc1ccsc1C(=O)Nc1cc(CN2CCOCC2)ccc1C,14.34,10.33
Cc1cccc2nc(-c3nc4c([nH]3)CCCNC4=O)cn12,1.875,-10.38
COc1ccc(C)c2c1N(C(=O)c1cnc(C)s1)CCC2,7.453,8.95
O=c1c2cc3c(cc2nnn1Cc1ccccc1Cl)OCCO3,1.416,-1.769
COc1ccc2c(c1)NC(=O)C2OC(=O)CCc1ccc(F)cc1 (centres undefined),4.57,-26.03
CN1CCOC(CNCc2nc(-c3ccccc3)cs2)C1 (centres undefined),6.103,-16.8
COc1cc(Oc2cnc3ccccc3n2)ccc1CN1CCCC1,21.77,49.48
CCCN(CCO)S(=O)(=O)c1ccc2[nH]c(=O)[nH]c2c1,3.488,-11.36
CC(=O)N1CCC(c2nccnc2CNC(=O)c2cc[nH]n2)CC1,9.449,10.1
Cc1ccc(S(=O)(=O)N2CCC(c3n[nH]cc3C)C2)cc1 (centres undefined),7.767,-14.52
Cc1cnc(-c2nc(C3CCN(Cc4ccccc4C)CC3)no2)cn1,12.46,-4.435
CC1(C(=O)N2CCOCC2)CN(Cc2ncc[nH]2)CCO1 (centres undefined),2.26,-31.64
O=C(CCOCC(F)(F)F)N1CCCC(n2ccnc2)C1 (centres undefined),8.197,-5.932
O=C1CSC(c2cccs2)c2cnn(C3CCCC3)c2N1 (centres undefined),18.67,-8.787
O=C(c1ccnnc1)N1CCc2onc(CN3CCCC3)c2C1,12.2,11.77
COCCN(Cc1ccc(F)cc1Cl)C(=O)c1c(C)noc1C,13.04,-13.78
CCS(=O)(=O)N1CCc2cc(C(=O)NC)c(NCC(C)C)nc2CC1,7.216,-2.153
CC(C)OC(=O)N1CCCC2(CCC(=O)N(CCc3c[nH]cn3)C2)C1 (centres undefined),6.452,-30.15
CC(O)CNc1ccc(C#N)cc1C(F)(F)F (centres undefined),9.394,-12.93
O=C(CCOc1cccc(F)c1)N1CCCC1Cn1cccn1 (centres undefined),12.01,5.56
Cc1cc(S(=O)(=O)NC(C)(C)CN)c(F)cc1F.Cl,-,7.936
O=C(CCn1c(C(F)F)cc2cccnc21)NC1CCCCC1,14.19,11.12
Cc1nnc([C@H]2C[C@H]3OCC[C@H]3N(S(=O)(=O)CC(C)C)C2)o1,18.12,-
Cc1cccc(CN2CCO[C@H]3[C@H](Oc4ccccn4)CC[C@@H]32)n1,14.07,-
CCOc1cc(C(=O)N(C)C)ccc1NC(=O)c1ccsc1,17.06,2.686
O=C(NCc1ccccn1)N1CC=C(c2ccccc2)CC1,4.945,21.78
CN(Cc1ccc(N(C)C)cc1)C(=O)CSc1ccc(Br)cc1,25,-27.81
COCCn1cc(NC(=O)NCC2CCN(c3ccccc3)C2)cn1 (centres undefined),4.835,13.99
CC1(C)O[C@@](C)([C@H]2CC3(CCN(c4cnccn4)CC3)CO2)CC[C@@H]1O,8.438,-
[H][C@@]12COC[C@]1(CNS(C)(=O)=O)CN(C(=O)Cc1ccccc1F)C2,-,17.55
[H][C@@]12CCN(Cc3cnn(C)c3)C[C@@]1([H])O[C@@H](c1nc(C)c(C)s1)C2,-,-6.447
COCCc1noc(CN2CCC(c3ccccc3C(=O)O)C2)n1 (centres undefined),13.8,12.06
Cc1ccc(CN(CC(=O)NCC2CCOC2)c2ccc(F)cc2)o1 (centres undefined),13.77,-5.199
COc1ccc(NS(=O)(=O)CC2=NC(=O)n3cccc3C2=O)cc1Cl,-0.303,16.94
Cc1cnc(C)c(N2CC[C@H](N3CCOCC3)[C@H](CCCO)C2)n1,12.66,0.6107
CCc1n[nH]c(C2CN(C(=O)c3cc(C4CC4)on3)CCO2)n1 (centres undefined),7.726,-27.3
CC1CCN(c2ncc3c(n2)CN(c2ccc4c(c2)OCO4)C3=O)CC1,15.75,14.79
Cc1ccc(CN(CCN(C)C)Cc2nc3ccccc3[nH]2)s1,9.524,-0.9785
Cc1cc(C(=O)NCCN2CCCc3ccccc32)[nH]n1,4.27,-5.05
O=C(O)C(F)(F)F.O=C(O)C(F)(F)F.c1cc(C2CC2)n2cnc(C3CN(Cc4ccncc4)CCO3)c2c1 (centres undefined),-,-36.11
Cc1nccc(CN2Cc3nccn3CC2c2ccccc2)n1 (centres undefined),12.21,3.959
Cc1ccc(CCNC(=O)Nc2cc(C(F)(F)F)c[nH]c2=O)o1,20,2.787
CC(C)C[C@H](N)COc1cccc(F)c1Oc1ccc(Cl)cc1,41.59,105.7
CNc1cncc(C2CCCN2C(=O)Cn2c(=O)oc3ccccc32)n1 (centres undefined),9.176,-16.86
CN(C)c1ncnc2c1CCN(C(=O)c1cccnc1)CC2,18.73,-
COCCN1C[C@@H]2[C@@H](OC)CCN(Cc3ccco3)[C@@H]2C1,21.88,-
CC(=O)N1CCCn2nc(CNS(=O)(=O)N3CCC(C)CC3)cc2C1,7.034,10.09
CCCc1noc(C2CC(=O)N(C(C)(C)C)C2)n1 (centres undefined),14.37,0.8544
CN(C)CCOCC1CN(Cc2ccccn2)Cc2nnn(C)c21.O=C(O)C(F)(F)F.O=C(O)C(F)(F)F.O=C(O)C(F)(F)F (centres undefined),-,-27.07
COc1cccc(OCc2cc(C(=O)N3CC(O)C3)n[nH]2)c1,18.35,-2.081
CC(C)(N)C(=O)N1CCC(c2nccnc2Oc2ccccc2F)CC1,0.7059,-23.15
O=C(NCc1csc(Br)c1)Nc1cn[nH]c1,9.288,-8.814
Cc1nc(CN2CCC3(C2)CN(C(=O)c2conc2C)C3)cs1,10.39,3.691
COc1ncccc1CN1C[C@H]2C[C@@H](C(=O)NCC3CC3)N(C)[C@H]2C1,-9.295,-
Cn1cnc(NC(=O)C2CC(=O)N(c3cccc(F)c3)C2)n1 (centres undefined),2.492,-4.713
Cl.Cn1ccnc1C1(O)CCN(C(=O)Cc2ccccc2)CC1,-,-18.55
COCCN1CCN(c2cccc(C)n2)Cc2ccc(C)nc21,10.56,-
COc1cccc(CC(C)NC(=O)NCc2ccn(C)c2)c1 (centres undefined),36.05,-10.98
CN(C)C(=O)CN1C[C@@H]2CC[C@H](C1)N(Cc1ccccc1OCCO)C2,13.54,-
CNS(=O)(=O)Cc1cccc(CNc2ccc(Cl)cn2)c1,17.1,1.824
NC(=O)C1CCN(c2nc3nccc(-c4cccnc4)c3c(=O)[nH]2)CC1,7.365,-6.695
CC(=O)N1CCC(NC(C)c2cnn(-c3ccc(F)cc3F)c2C)CC1 (centres undefined),5.16,9.857
N#Cc1ccc(F)c(CN2CCCCC2Cn2cccn2)c1 (centres undefined),22.91,-5.108
N[C@H]1CC[C@@H](n2cc(C(=O)N[C@H]3CCCc4ccccc43)nn2)CC1,21.14,13.35
O=C(N1CCOCC1)N1CCCC2(CCCNC2)C1 (centres undefined),8.333,-
O=C(c1ccccn1)N1CCC(Oc2ncccc2Cl)CC1,5.755,-11.45
CCCOC(=O)N1CCC(c2nnc(Cn3cccn3)n2C2CC2)CC1,3.683,-22.41

The first 9 entries again:

| structure | A | B |
|---|---|---|
| `CO[C@H]1CN(C(=O)c2cn3cc(C)ccc3n2)CC[C@@]12CCCO2` | 8.491 | -2.853 |
| `COc1ccc2c(c1)CCCN(C(C)C(=O)NC(C)C)C2` (centres undefined) | 17.96 | 5.467 |
| `COc1ccc(CN2CCn3cc(CN4CCCCC4)nc3C2)cc1` | 7.843 | - |
| `Cc1cc(C)cc(CN2CCN(C(=O)C3CCC3)[C@@H]3CS(=O)(=O)C[C@@H]32)c1` | 10.75 | - |
| `Cn1cnc2c1C(C(=O)N1CCCC1)N(S(C)(=O)=O)CC2` (centres undefined) | 13.78 | -3.673 |
| `CC(O)C(=O)N1CCN(c2ccccc2Cl)C(=O)C1` (centres undefined) | 0 | -4.975 |
| `O=C1[C@H]2CN(Cc3ccc(F)cc3)C[C@H]2CN1c1cncnc1` | 8.602 | - |
| `[H][C@@]12CCN(Cc3cccc4ccccc34)C[C@]1(c1nnc(C)o1)CCO2` | - | 3.885 |
| `CCN(Cc1noc(CC(C)C)n1)Cc1ccccc1Cl` | 12.05 | -12.61 |